Test results reported in patent US20020058020A1, “Isolated amphiphilic peptides derived from the cytoplasmic tail of viral envelope proteins” (priority 1999, published 2002).

System: virions from transfected 293T cells
Assay: Envelope protein incorporation into viral particles (Western Blot)
Conditions: Western Blots n = 3-5, anti-p30, gp70, p15E

With “WT: wild type MoMuLV ecotropic envelope protein” the “Particle Incorporation” value was “++++”.
